This is one part of the list. The calls rarely recur for the same compound in another form.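 Kinases, fused to nanoluciferase, were expressed in K562 cells; luminescence was measured every 4 h from 2 to 18 h as percent of control (DMSO = 100%, positive control = 0%). A time point is decreased if signal falls significantly (2 sigma). Hits were called by the authors by a rule that is not shown; the count of time points alone does not decide it.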
What was measured:
Assay in all cases: number of time points (of 5) at which kinase-Nluc abundance scored as decreased, DMSO-normalised (count); higher = more persistent destabilization
[1] = compound: OCCn1cc(-c2cnc3nnn(Cc4ccc5ncccc5c4)c3n2)cn1; settings: 10 µM; K562; 2-18 h
PI-103 (Hydrochloride) = compound: Oc1cccc(-c2nc(N3CCOCC3)c3oc4ncccc4c3n2)c1 [PI-103 (Hydrochloride)]; settings: 2.5 µM; K562; 2-18 h
[2] = compound: Oc1cccc(-c2nc(N3CCOCC3)c3oc4ncccc4c3n2)c1; settings: 10 µM; K562; 2-18 h
[3] = compound: c1cc(-c2cnn3cc(-c4ccc(OCCN5CCCCC5)cc4)cnc23)ccn1 [Dorsomorphin (dihydrochloride)]; settings: 2.5 µM; K562; 2-18 h
Dorsomorphin = compound: c1cc(-c2cnn3cc(-c4ccc(OCCN5CCCCC5)cc4)cnc23)ccn1 [Dorsomorphin]; settings: 2.5 µM; K562; 2-18 h

By UniProt entry, the sequences of proteins in these tests, tags left out. Where a name states a change or a piece, a line headed by the entry shows the natural chain unless it says otherwise.
UniProt P21860, whole entry: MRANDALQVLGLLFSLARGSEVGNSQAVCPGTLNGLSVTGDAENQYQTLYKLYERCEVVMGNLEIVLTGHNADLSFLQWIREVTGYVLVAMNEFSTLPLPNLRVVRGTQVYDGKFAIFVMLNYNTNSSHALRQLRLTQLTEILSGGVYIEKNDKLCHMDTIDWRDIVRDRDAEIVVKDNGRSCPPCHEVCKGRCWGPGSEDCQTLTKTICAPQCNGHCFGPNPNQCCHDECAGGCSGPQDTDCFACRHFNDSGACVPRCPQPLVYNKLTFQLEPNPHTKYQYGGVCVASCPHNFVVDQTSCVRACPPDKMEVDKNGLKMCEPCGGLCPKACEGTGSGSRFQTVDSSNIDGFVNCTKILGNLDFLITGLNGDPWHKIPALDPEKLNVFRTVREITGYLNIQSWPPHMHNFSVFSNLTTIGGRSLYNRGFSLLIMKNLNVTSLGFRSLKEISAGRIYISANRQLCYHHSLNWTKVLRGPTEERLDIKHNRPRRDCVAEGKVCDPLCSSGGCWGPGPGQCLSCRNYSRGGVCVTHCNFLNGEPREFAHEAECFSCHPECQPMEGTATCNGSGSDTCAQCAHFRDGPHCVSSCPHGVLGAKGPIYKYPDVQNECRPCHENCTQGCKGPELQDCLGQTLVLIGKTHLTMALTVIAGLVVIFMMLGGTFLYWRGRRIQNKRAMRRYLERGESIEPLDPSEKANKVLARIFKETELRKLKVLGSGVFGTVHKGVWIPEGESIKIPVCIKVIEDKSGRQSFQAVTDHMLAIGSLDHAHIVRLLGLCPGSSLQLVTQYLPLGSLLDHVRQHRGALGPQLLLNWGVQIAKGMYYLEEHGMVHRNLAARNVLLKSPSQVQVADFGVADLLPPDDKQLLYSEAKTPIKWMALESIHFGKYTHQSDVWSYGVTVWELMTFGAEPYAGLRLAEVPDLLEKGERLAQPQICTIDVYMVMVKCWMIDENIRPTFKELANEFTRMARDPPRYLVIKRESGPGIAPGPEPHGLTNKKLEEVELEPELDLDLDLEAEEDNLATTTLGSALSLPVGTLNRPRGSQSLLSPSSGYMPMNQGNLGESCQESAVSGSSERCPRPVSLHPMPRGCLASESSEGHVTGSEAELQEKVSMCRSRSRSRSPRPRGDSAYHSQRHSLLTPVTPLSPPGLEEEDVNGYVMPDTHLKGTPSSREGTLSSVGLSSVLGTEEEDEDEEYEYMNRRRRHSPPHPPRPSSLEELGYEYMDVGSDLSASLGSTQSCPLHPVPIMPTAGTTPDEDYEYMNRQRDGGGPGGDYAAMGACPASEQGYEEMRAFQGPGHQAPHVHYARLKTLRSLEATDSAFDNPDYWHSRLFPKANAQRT
UniProt Q9BRS2: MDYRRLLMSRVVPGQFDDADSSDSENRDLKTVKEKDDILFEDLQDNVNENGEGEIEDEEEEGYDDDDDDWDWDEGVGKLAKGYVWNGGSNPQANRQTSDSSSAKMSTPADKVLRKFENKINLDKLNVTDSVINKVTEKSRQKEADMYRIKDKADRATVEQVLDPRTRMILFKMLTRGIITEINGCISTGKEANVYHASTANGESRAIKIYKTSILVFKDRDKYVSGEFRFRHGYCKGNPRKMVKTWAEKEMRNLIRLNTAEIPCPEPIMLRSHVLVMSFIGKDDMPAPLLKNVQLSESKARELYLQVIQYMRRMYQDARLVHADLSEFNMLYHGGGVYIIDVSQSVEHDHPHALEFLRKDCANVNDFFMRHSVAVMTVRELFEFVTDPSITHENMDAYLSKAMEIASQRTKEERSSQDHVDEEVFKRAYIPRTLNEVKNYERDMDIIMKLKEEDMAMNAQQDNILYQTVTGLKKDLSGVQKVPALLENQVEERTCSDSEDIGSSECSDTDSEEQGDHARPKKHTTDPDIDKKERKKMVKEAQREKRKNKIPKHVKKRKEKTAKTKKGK
UniProt Q9UQM7, whole entry: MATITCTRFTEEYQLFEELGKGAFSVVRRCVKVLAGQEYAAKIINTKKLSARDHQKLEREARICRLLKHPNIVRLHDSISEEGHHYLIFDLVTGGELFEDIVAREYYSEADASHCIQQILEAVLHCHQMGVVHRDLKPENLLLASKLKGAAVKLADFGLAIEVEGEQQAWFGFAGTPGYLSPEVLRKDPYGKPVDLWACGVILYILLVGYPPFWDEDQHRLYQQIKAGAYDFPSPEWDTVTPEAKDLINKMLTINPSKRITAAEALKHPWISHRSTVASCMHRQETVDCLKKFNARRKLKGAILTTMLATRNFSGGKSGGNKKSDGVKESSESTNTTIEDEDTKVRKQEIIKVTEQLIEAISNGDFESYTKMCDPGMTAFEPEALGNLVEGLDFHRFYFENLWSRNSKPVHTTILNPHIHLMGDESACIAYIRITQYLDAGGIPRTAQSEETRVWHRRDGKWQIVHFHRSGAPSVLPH
UniProt P07948: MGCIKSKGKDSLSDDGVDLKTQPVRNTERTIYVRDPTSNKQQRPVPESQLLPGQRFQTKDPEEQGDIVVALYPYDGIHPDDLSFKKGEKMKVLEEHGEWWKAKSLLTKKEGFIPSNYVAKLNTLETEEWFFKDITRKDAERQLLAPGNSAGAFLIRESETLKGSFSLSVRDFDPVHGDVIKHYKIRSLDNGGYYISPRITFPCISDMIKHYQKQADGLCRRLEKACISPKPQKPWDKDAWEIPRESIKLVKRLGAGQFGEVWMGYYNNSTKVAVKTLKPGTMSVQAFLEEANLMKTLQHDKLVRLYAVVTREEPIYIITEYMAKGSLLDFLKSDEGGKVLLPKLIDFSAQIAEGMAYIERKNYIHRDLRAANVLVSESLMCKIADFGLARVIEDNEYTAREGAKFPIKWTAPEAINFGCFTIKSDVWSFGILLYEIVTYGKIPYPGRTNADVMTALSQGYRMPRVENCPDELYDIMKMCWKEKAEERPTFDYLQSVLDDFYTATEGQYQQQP
UniProt O14965: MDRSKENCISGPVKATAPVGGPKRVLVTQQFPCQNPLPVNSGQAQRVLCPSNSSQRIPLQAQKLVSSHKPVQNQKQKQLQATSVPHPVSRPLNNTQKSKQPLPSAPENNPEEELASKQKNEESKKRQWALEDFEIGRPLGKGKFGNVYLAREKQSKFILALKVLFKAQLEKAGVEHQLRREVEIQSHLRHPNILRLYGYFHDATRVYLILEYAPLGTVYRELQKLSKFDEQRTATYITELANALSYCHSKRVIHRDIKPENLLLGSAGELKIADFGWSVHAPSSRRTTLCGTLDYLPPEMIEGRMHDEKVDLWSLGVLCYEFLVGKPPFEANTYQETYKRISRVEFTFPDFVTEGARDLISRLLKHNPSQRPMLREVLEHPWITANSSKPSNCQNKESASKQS
UniProt Q15208: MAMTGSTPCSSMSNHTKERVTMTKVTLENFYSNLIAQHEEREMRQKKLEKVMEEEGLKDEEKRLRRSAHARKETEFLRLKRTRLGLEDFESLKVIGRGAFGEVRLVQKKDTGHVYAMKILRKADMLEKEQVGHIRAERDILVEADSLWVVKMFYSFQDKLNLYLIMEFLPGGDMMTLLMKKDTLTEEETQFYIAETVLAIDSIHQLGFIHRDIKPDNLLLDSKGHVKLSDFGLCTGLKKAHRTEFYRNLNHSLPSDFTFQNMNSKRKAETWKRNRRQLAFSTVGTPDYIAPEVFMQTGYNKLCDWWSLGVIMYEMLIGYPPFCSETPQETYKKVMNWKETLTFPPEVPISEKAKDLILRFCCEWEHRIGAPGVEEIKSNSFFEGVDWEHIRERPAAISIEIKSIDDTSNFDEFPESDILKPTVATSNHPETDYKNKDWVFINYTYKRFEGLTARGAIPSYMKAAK
UniProt P07949, whole entry M918T, looked up: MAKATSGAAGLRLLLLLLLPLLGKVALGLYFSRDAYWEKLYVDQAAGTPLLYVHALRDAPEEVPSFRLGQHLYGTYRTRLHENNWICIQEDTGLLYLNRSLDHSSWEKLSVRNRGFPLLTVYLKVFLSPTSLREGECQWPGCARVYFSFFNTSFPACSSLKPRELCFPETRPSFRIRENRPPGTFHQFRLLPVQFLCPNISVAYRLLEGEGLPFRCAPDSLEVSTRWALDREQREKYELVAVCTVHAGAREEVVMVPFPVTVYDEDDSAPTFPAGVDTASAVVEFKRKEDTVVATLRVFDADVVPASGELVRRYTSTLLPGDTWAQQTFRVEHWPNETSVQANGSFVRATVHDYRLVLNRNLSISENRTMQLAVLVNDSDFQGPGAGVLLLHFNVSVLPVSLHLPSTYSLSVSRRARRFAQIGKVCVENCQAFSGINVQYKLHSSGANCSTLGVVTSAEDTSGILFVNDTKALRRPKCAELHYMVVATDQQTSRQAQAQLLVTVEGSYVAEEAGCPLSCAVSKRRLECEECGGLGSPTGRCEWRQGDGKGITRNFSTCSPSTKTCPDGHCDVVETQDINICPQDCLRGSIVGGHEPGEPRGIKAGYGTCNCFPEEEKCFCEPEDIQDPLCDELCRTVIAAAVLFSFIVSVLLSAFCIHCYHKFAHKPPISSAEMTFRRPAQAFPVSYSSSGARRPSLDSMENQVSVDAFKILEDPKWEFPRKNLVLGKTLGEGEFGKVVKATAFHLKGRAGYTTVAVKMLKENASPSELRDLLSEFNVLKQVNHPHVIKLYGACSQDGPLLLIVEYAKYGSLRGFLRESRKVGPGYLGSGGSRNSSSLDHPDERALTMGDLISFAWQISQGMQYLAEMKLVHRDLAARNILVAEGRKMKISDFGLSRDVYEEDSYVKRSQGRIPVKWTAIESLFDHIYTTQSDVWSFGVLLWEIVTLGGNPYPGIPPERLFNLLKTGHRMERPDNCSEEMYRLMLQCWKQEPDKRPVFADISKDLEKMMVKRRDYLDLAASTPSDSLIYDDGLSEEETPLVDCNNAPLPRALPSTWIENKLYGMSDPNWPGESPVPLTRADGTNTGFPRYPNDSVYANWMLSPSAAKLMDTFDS
UniProt P07949, whole entry, looked up: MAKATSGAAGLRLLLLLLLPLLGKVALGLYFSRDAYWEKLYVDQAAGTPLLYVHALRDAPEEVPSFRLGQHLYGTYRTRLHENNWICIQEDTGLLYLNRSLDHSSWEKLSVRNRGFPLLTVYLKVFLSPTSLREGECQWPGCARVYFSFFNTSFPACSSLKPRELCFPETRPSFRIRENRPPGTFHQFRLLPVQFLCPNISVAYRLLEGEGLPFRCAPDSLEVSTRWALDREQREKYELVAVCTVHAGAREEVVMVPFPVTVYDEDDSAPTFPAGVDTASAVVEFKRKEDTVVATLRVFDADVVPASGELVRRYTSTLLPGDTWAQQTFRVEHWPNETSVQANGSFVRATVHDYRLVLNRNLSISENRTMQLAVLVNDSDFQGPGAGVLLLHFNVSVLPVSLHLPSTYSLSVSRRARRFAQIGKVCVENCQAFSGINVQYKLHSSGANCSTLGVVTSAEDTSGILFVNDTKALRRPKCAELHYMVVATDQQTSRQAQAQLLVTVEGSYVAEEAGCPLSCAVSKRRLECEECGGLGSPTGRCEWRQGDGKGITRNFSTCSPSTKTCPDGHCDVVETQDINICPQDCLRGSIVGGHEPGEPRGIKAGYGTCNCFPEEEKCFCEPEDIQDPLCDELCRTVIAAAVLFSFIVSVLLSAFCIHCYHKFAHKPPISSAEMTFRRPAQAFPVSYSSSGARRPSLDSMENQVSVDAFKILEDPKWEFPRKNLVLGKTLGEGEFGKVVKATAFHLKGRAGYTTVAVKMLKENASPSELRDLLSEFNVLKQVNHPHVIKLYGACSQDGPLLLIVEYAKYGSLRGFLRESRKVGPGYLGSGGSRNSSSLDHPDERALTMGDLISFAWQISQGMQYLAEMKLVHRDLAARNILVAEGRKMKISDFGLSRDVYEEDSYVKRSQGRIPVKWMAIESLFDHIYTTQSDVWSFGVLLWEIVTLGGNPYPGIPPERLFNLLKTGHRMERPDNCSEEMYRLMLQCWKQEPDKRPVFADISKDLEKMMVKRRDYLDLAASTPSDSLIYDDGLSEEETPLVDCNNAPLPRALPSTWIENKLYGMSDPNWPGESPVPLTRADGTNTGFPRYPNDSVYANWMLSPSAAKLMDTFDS
UniProt O15530: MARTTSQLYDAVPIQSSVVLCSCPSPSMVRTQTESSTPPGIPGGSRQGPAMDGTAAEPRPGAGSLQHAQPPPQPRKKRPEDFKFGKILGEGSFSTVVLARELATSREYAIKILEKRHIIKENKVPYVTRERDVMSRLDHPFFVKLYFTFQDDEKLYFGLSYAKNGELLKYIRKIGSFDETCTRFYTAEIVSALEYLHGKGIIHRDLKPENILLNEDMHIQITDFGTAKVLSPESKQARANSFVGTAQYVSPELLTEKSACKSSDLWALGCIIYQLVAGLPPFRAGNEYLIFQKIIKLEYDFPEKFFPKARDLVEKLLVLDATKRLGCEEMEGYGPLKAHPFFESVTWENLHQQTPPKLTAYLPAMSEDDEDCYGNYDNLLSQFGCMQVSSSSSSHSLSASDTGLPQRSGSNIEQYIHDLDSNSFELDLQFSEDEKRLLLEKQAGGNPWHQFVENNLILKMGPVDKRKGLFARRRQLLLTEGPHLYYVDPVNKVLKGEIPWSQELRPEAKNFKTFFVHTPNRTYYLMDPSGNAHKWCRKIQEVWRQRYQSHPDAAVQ

Target	number of time points [1]	number of time points (PI-103 (Hydrochloride))	number of time points [2]	number of time points [3]	number of time points (Dorsomorphin)
NTRK3 (UniProt Q16288)	0	0	0	3	0
ERBB3 (UniProt P21860)	0	0	0	2	0
PLK1 (UniProt P53350)	0	0	1	0	0
EGFR_L861Q (UniProt P00533)	0	0	0	3	0
RIOK1 (UniProt Q9BRS2)	0	0	0	2	0
ULK3 (UniProt Q6PHR2)	0	0	0	4	0
DDR1 (UniProt Q08345)	0	3	1	4	0
CAMK2A (UniProt Q9UQM7)	0	0	0	0	0
PBK (UniProt Q96KB5)	0	0	0	0	0
JAK1 (UniProt P23458)	0	0	0	3	0
PAK4 (UniProt O96013)	0	0	0	0	0
SYK (UniProt P43405)	0	0	0	0	0
ERBB4_R711C (clone: ERBB4_mut) (UniProt Q15303)	0	3	1	4	0
NTRK2 (UniProt Q16620)	0	0	0	3	0
LYN (UniProt P07948)	0	0	0	0	0
MKNK1 (UniProt Q9BUB5)	0	0	1	4	0
STK24 (UniProt Q9Y6E0)	0	0	0	0	0
FGFR2 (UniProt P21802)	0	0	2	3	0
EPHA2 (UniProt P29317)	0	0	0	0	0
EGFR_L718V (UniProt P00533)	0	0	0	1	0
CDK2 (UniProt P24941)	0	0	0	0	0
MAPKAPK2 (UniProt P49137)	0	0	0	0	0
INSRR (UniProt P14616)	0	1	2	2	0

Target	number of time points [1]	number of time points (PI-103 (Hydrochloride))	number of time points [2]	number of time points [3]	number of time points (Dorsomorphin)
MAPK4 (UniProt P31152)	0	0	0	0	0
HER2 (UniProt P04626)	0	0	0	0	0
MAP4K2 (UniProt Q12851)	0	0	0	0	0
CSF1R (UniProt P07333)	0	0	0	0	0
MAP2K2 (UniProt P36507)	0	0	0	0	0
RAF1_S257L (clone: RAF1_mut) (UniProt P04049)	0	0	0	4	0
BRAF (UniProt P15056)	0	0	0	0	0
DYRK1B (UniProt Q9Y463)	0	0	0	0	0
EGFR_G719S (UniProt P00533)	0	0	0	1	0
PIK4CB (UniProt Q9UBF8)	0	0	0	0	0
ABL1 (UniProt P00519)	0	2	2	2	0
RPS6KA1 (UniProt Q15418)	0	0	0	0	0
ZAP70 (UniProt P43403)	0	0	0	0	0
IRAK3 (UniProt Q9Y616)	0	0	0	4	0
ERN1 (UniProt O75460)	0	0	0	0	0
BMX (UniProt P51813)	0	0	0	3	1
LCK (UniProt P06239)	0	0	0	0	0
FGR (UniProt P09769)	0	0	0	0	0
BRAF_V600E	0	1	1	3	0
RAF1 (UniProt P04049)	0	0	0	2	0
LIMK2 (UniProt P53671)	0	0	0	0	1
LIMK1 (UniProt P53667)	0	0	3	3	0
ZAK (UniProt Q9NYL2)	0	0	0	0	0

Target	number of time points [1]	number of time points (PI-103 (Hydrochloride))	number of time points [2]	number of time points [3]	number of time points (Dorsomorphin)
PDGFRB (UniProt P09619)	0	0	0	3	0
PRKCA (UniProt P17252)	0	0	0	0	0
MAP2K1 (UniProt Q02750)	0	0	0	0	0
AURKC (UniProt Q9UQB9)	0	0	0	0	0
SRC (UniProt P12931)	0	0	0	0	0
DYRK2 (UniProt Q92630)	0	0	0	4	0
ARAF (UniProt P10398)	0	0	0	0	0
PDK1 (UniProt Q15118)	0	0	0	0	0
AURKA (UniProt O14965)	0	0	0	0	0
FLT3 (UniProt P36888)	0	0	0	4	0
FGFR3 (UniProt P22607)	0	0	0	0	0
FYN (UniProt P06241)	0	0	2	1	0
YES1 (UniProt P07947)	0	0	0	0	0
CAMK2G (UniProt Q13555)	0	0	0	0	0
LMTK2 (UniProt Q8IWU2)	0	0	0	0	0
CDK3 (UniProt Q00526)	0	0	0	0	0
EGFR_L858R (UniProt P00533)	0	0	0	3	0
STK38 (UniProt Q15208)	0	0	0	0	0
CDK5 (UniProt Q00535)	–	0	0	0	0
FGFR1 (UniProt P11362)	0	0	0	0	0
EGFR_G719S_T790M (UniProt P00533)	0	0	0	3	0
CSNK1A1 (UniProt P48729)	0	0	0	0	0
PRKAA1 (UniProt Q13131)	0	0	0	1	0

Target	number of time points [1]	number of time points (PI-103 (Hydrochloride))	number of time points [2]	number of time points [3]	number of time points (Dorsomorphin)
TEC (UniProt P42680)	0	0	0	0	0
RET_M918T (clone: RET_mut) (UniProt P07949)	0	0	0	0	0
BLK (UniProt P51451)	–	0	0	0	0
ALK (UniProt Q9UM73)	0	0	0	2	0
RIPK2 (UniProt O43353)	0	0	0	4	1
GSK3A (UniProt P49840)	0	0	0	0	0
PIK4CA (UniProt P42356)	0	0	0	0	0
EGFR (UniProt P00533)	0	0	0	1	0
CSNK1D (UniProt P48730)	0	0	1	0	0
SPHK1 (UniProt Q9NYA1)	0	0	0	0	0
MAPK1 (UniProt P28482)	0	0	0	0	0
BTK (UniProt Q06187)	0	0	0	0	0
RET (UniProt P07949)	0	0	0	3	0
PDPK1 (UniProt O15530)	0	0	0	3	0
CDK10 (UniProt Q15131)	0	0	0	0	0
CHEK2 (UniProt O96017)	0	0	0	0	0
PTK2B (UniProt Q14289)	0	0	0	0	0
CSK (UniProt P41240)	0	0	0	0	0
RIPK1 (UniProt Q13546)	0	0	0	3	0
AKT1 (UniProt P31749)	0	0	0	0	0

Laid out differently: results already given.

| Target | number of time points [1] | number of time points (PI-103 (Hydrochloride)) | number of time points [2] | number of time points [3] | number of time points (Dorsomorphin) |
| --- | --- | --- | --- | --- | --- |
| FGFR1 (UniProt P11362) | 0 | 0 | 0 | 0 | 0 |
| CSNK1A1 (UniProt P48729) | 0 | 0 | 0 | 0 | 0 |
| PRKAA1 (UniProt Q13131) | 0 | 0 | 0 | 1 | 0 |
| TEC (UniProt P42680) | 0 | 0 | 0 | 0 | 0 |
| BLK (UniProt P51451) | – | 0 | 0 | 0 | 0 |
| ALK (UniProt Q9UM73) | 0 | 0 | 0 | 2 | 0 |
| RIPK2 (UniProt O43353) | 0 | 0 | 0 | 4 | 1 |
| GSK3A (UniProt P49840) | 0 | 0 | 0 | 0 | 0 |
| PIK4CA (UniProt P42356) | 0 | 0 | 0 | 0 | 0 |
| EGFR (UniProt P00533) | 0 | 0 | 0 | 1 | 0 |
| CSNK1D (UniProt P48730) | 0 | 0 | 1 | 0 | 0 |
| SPHK1 (UniProt Q9NYA1) | 0 | 0 | 0 | 0 | 0 |
| MAPK1 (UniProt P28482) | 0 | 0 | 0 | 0 | 0 |
| BTK (UniProt Q06187) | 0 | 0 | 0 | 0 | 0 |
| RET (UniProt P07949) | 0 | 0 | 0 | 3 | 0 |
| PDPK1 (UniProt O15530) | 0 | 0 | 0 | 3 | 0 |
| CDK10 (UniProt Q15131) | 0 | 0 | 0 | 0 | 0 |
| CHEK2 (UniProt O96017) | 0 | 0 | 0 | 0 | 0 |
| CSK (UniProt P41240) | 0 | 0 | 0 | 0 | 0 |
| RIPK1 (UniProt Q13546) | 0 | 0 | 0 | 3 | 0 |
| AKT1 (UniProt P31749) | 0 | 0 | 0 | 0 | 0 |

Reference: the supplement of paper PMC12823440, “Inhibitors supercharge kinase turnover through native proteolytic circuits” (Nature, 2025)
